Results are given in words; binding and its absence hold for the method and conditions named. Some binding calls cover weakened binding; strength is not graded here.
Molecular target: Activin RIIA receptor (ActRIIA) (human) (UniProt P27037)
Experiment: SPR; receptors captured on immobilized anti-human Fc; IL34 injected (18.75, 37.5, 75, 150, 300 nM); T200, 25 °C, PBS pH 7.4 with 0.05% P20; steady-state fitting model; both purified

By UniProt entry, the sequences of proteins in these tests, tags left out.
UniProt P27037: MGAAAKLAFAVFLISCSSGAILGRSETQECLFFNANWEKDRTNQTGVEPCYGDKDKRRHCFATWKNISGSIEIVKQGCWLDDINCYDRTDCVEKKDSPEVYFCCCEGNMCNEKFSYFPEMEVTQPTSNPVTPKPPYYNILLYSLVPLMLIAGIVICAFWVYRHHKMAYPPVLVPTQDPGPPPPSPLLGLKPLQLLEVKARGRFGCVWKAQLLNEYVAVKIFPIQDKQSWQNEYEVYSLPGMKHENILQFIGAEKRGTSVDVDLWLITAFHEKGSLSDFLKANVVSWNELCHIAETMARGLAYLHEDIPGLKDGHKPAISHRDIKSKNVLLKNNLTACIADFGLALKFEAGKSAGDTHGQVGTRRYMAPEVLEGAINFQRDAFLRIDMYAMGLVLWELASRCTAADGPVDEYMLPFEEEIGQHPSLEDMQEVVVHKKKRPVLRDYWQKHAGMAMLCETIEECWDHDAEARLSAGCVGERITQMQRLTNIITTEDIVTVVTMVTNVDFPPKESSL

binding: binds
B1: Recombinant human interleukin-34 (IL34) (ligand)
chain: NEPLEMWPLTQNEECTVTGFLRDKLQYRSRLQYMKHYFPINYKISVPYEGVFRIANVTRLQRAQVSERELRYLWVLVSLSATESVQDVLLEGHPSWKYLQEVETLLLNVQQGLTDVEVSPKVESVLSLLNAPGPNLKLVRPKALLDNCFRVMELLYCSCCKQSSVLNWQDCEVPSPQSCSPEPSLQYAATQLYPPPPWSPSSPPHSTGSVRPVRAQGEGLLP

Source: article PMC11898274, “Interleukin-34 orchestrates bone formation through its binding to bone morphogenic proteins” (Theranostics, 2025)
